PubChem BioAssay AID652272 – Drosophila RNAi Screening Center | 2013

- Aim: 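Genome-wide knock-down search for components of Hedgehog signalling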 (primary screen)
- Cell system: Drosophila clone 8 (Cl8) cells
- Knock-down reagent: long dsRNA against Drosophila genes
- Measured: 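Plate reader light from a firefly reporter under a ptc promoter fragment that responds to Hedgehog, with Renilla light as transfection reference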
- Scale: firefly Hh reporter signal: higher = more ptc reporter light; Renilla reference signal: higher = more Renilla control light
- Call rule: 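Hit when the z-score averaged over two replicates is under -2 or over +3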
- Meaning of the calls: active = hit: reporter lowered or raised; inactive = not a hit
The deposit covers about 21,000 reagents; shown is a random part of those that have a named target and a result. In the full data, 503 (2.4%) are marked active. 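Raw plate light values, not normalised; calls rest on replicate z-scores that were not deposited; hits include reporter decreases as well as increases.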 A plus sign joins genes that one reagent is predicted to hit. No sequences are given here. The record does not give: the amount of reagent, the time to read-out.

| gene knocked down | dsRNA | firefly Hh reporter signal, replicate 1 | firefly Hh reporter signal, replicate 2 | firefly Hh reporter signal, replicate 3 | Renilla reference signal, replicate 1 | Renilla reference signal, replicate 2 | call |
| --- | --- | --- | --- | --- | --- | --- | --- |
| alpha-Cat (alpha Catenin) | DRSC11917 | 1.68e5 | 5.41e5 | 1.10e5 | 6212 | 34304 | inactive |
| clt (cricklet) | DRSC04621 | 74525 | 54038 | – | 2073 | 5175 | inactive |
| vri (vrille) | DRSC03633 | 57256 | 19728 | – | 1655 | 2481 | inactive |
| FRG1 (FSHD region gene 1) | DRSC10648 | 1.23e5 | 1.11e5 | – | 3958 | 3353 | inactive |
| CG4036 | DRSC02735 | 89732 | 62459 | – | 3602 | 2745 | inactive |
| CG14331 | DRSC14810 | 66096 | 71762 | – | 1545 | 1832 | inactive |
| tim (timeless) | DRSC00841 | 84538 | 60408 | – | 4108 | 2720 | inactive |
| LysP (Lysozyme P) | DRSC08676 | 48170 | 39968 | – | 2006 | 3136 | inactive |
| Spt3 | DRSC15465 | 1.02e5 | 91453 | – | 3621 | 3000 | inactive |
| CG13000 | DRSC19519 | 50448 | 1.98e5 | – | 1820 | 9697 | inactive |
| dgo (diego) | DRSC06134 | 1.66e5 | 1.13e5 | – | 6652 | 3904 | inactive |
| CG18542 + CG32939 | DRSC15342 | 1.10e5 | 85784 | – | 4411 | 3063 | inactive |
| CG33784 | DRSC12764 | 2.39e5 | – | – | 3859 | – | inactive |
| CG18269 | DRSC02660 | 75030 | 56486 | – | 1926 | 5888 | inactive |
| CG15390 | DRSC00404 | 1.37e5 | 1.11e5 | – | 3483 | 2464 | inactive |
| CG5969 | DRSC11789 | 99954 | 66240 | – | 5745 | 3921 | active |
| CG33791 + CG18170 | DRSC08523 | 1.41e5 | 60364 | – | 5628 | 4408 | inactive |
| CG33791 + CG18170 | DRSC08601 | 90220 | 31101 | – | 3417 | 2641 | inactive |
| CG31223 | DRSC15115 | 1.11e5 | 47562 | – | 4704 | 1830 | inactive |
| TTLL6A (Tubulin tyrosine ligase-like 6A) | DRSC06618 | 99225 | 87629 | – | 2355 | 5173 | inactive |
| CG42272 | DRSC08766 | 1.25e5 | 2.64e5 | – | 9549 | 11008 | inactive |
| CG14219 | DRSC19576 | 1.08e5 | 2.45e5 | – | 4512 | 10451 | inactive |
| l(3)mbt (lethal (3) malignant brain tumor) | DRSC16983 | 86823 | 70713 | – | 2199 | 2061 | inactive |
| CG42366 | DRSC02760 | 60144 | 23290 | – | 1828 | 3101 | inactive |
| Kank | DRSC05513 | 1.87e5 | 3.00e5 | – | 5204 | 12502 | inactive |
| Kank | DRSC05933 | 1.66e5 | 68476 | – | 5207 | 2113 | inactive |
| P5cr-2 (Pyrroline-5-carboxylate reductase-like 2) | DRSC15889 | 46084 | 74873 | – | 1136 | 1881 | inactive |
| CG7714 | DRSC16300 | 7.21e5 | 1.31e5 | – | 35378 | 3616 | inactive |
| CG7231 | DRSC03034 | 79109 | 47330 | – | 2198 | 4264 | inactive |
| RpS29 + snoRNA:Psi18S-1275 | DRSC16433 | 29760 | 45837 | – | 1328 | 2091 | inactive |
| CG14658 | DRSC12244 | 50508 | 78000 | – | 1220 | 2776 | inactive |
| exex (extra-extra) | DRSC10972 | 41840 | 59828 | – | 5968 | 4274 | inactive |
| elfless | DRSC02451 | 78423 | 50826 | – | 2262 | 4300 | inactive |
| CG5167 | DRSC15728 | 95680 | 1.03e5 | – | 3275 | 2743 | inactive |
| wcy (wacky) | DRSC20132 | 72688 | 71268 | – | 1512 | 1780 | inactive |
| Ir75a (Ionotropic receptor 75a) | DRSC10188 | 86091 | – | – | 4731 | 2613 | inactive |
| mad2 | DRSC10274 | 50131 | 41749 | – | 3798 | 3056 | inactive |
| Polr3H (RNA polymerase III subunit H) | DRSC10817 | 52748 | 58360 | 72844 | 5763 | 5731 | inactive |
| Targ1 (Terminal ADP-ribose protein glycohydrolase 1) | DRSC11616 | 70848 | 1.21e5 | – | 1680 | 3532 | inactive |
| Vps51 (Vacuolar protein sorting 51) | DRSC06519 | 1.57e5 | 69218 | – | 6198 | 2956 | inactive |
| Csp (Cysteine string protein) | DRSC11860 | 1.30e5 | 1.00e5 | – | 5667 | 3482 | inactive |
| CG15262 | DRSC01975 | 68386 | 64390 | – | 1739 | 5369 | inactive |
| CG13847 | DRSC14697 | 43930 | 30413 | – | 2491 | 1730 | active |
| Trxr2 (Thioredoxin reductase 2) | DRSC11900 | 69334 | 83477 | – | 2669 | 1029 | inactive |
| CG33178 | DRSC19950 | 70145 | 2.35e5 | – | 1156 | 10080 | inactive |
| RnrL (Ribonucleoside diphosphate reductase large subunit) | DRSC03413 | 80756 | 66200 | – | 3619 | 2711 | inactive |
| CG43078 | DRSC10292 | 57831 | 29235 | – | 2625 | 1253 | inactive |
| CG43078 | DRSC10608 | 1.00e5 | 67216 | – | 4038 | 2640 | inactive |
| CG15743 | DRSC19709 | 86667 | 2.06e5 | – | 2219 | 7296 | inactive |
| yellow-g2 | DRSC08338 | 60170 | 40620 | – | 2029 | 3392 | inactive |
| CG12105 | DRSC08255 | 78389 | 75280 | – | 3585 | 3536 | inactive |
| gpp (grappa) | DRSC12515 | 32966 | 49993 | – | 962 | 1948 | inactive |
| gpp (grappa) | DRSC12516 | 49897 | 71537 | – | 1747 | 2125 | inactive |
| CG1316 | DRSC08304 | 90598 | 43189 | – | 2384 | 747 | inactive |
| lncRNA:CR43242 (long non-coding RNA:CR43242) | DRSC03827 | 75456 | 51282 | – | 2584 | 4634 | inactive |
| side-VI (sidestep VI) | DRSC12828 | 2.91e5 | – | – | 5553 | – | inactive |
| side-VI (sidestep VI) | DRSC12830 | 3.57e5 | – | – | 6716 | – | inactive |
| side-VI (sidestep VI) | DRSC14920 | 87893 | 1.24e5 | – | 2848 | 3409 | inactive |
| side-VI (sidestep VI) | DRSC15624 | 73610 | 87624 | – | 2784 | 2369 | inactive |

10 neighbouring records from above, quoted:
| gene knocked down | dsRNA | firefly Hh reporter signal, replicate 1 | firefly Hh reporter signal, replicate 2 | firefly Hh reporter signal, replicate 3 | Renilla reference signal, replicate 1 | Renilla reference signal, replicate 2 | call |
| --- | --- | --- | --- | --- | --- | --- | --- |
| clt (cricklet) | DRSC04621 | 74525 | 54038 | – | 2073 | 5175 | inactive |
| vri (vrille) | DRSC03633 | 57256 | 19728 | – | 1655 | 2481 | inactive |
| FRG1 (FSHD region gene 1) | DRSC10648 | 1.23e5 | 1.11e5 | – | 3958 | 3353 | inactive |
| CG4036 | DRSC02735 | 89732 | 62459 | – | 3602 | 2745 | inactive |
| CG14331 | DRSC14810 | 66096 | 71762 | – | 1545 | 1832 | inactive |
| tim (timeless) | DRSC00841 | 84538 | 60408 | – | 4108 | 2720 | inactive |
| LysP (Lysozyme P) | DRSC08676 | 48170 | 39968 | – | 2006 | 3136 | inactive |
| Spt3 | DRSC15465 | 1.02e5 | 91453 | – | 3621 | 3000 | inactive |
| CG13000 | DRSC19519 | 50448 | 1.98e5 | – | 1820 | 9697 | inactive |
| dgo (diego) | DRSC06134 | 1.66e5 | 1.13e5 | – | 6652 | 3904 | inactive |
